# PubChem BioAssay AID330 (DTP/NCI, 2004)
# The list does not hold the whole screen: it is rich in T/C values a quarter to a half above the control, in often repeated tests (any T/C) and in doses without a T/C. Other doses and runs of a compound stand elsewhere. T/C is the treated group as % of the vehicle group. Some doses have a count of surviving animals in place of a T/C: the source files T/C as zero there, which appears to mark a toxic dose or a test without result, not a measured value. Some doses without a T/C left all or most animals alive at the check, yet need not have been tolerated: survival well below the control is almost never listed, so the zero probably covers shortened survival too. Survivors were counted at the toxicity check, usually on the fifth day, unless a day is given; later deaths do not show. Schedule codes are those of the source, read here as Q, the interval in days (D) or hours (H), X, the number of doses. Some doses were run more than once; their values stand side by side, smallest first. For survival time, this PubChem deposit counts one and a half times the control or more as active, and values a quarter to a half above the control carry no call in these data; other NCI protocols may use other cut-offs. Some T/C values carry the count of animals alive at the toxicity check (mostly the fifth day); where none is given, no animal had died by that day.
# Test system: P388 leukemia ip, CD2F1 mice, survival T/C
# Test: NCI In Vivo Anticancer Drug Screen. Data for tumor model P388 Leukemia (intraperitoneal) in CD2F1 (CDF1) mice
# Conditions: T/C endpoint: median survival time, higher T/C = longer survival
smiles,measurement,setting,value
COc1ccc(NC(C)=NC(C)C)cc1,survivor count,"dose: 25.0 mg/kg/injection, schedule: Q01DX009 (ip), vehicle: saline with Tween-80",6 of 6
same,survivor count,"dose: 100.0 mg/kg/injection, schedule: Q01DX009 (ip), vehicle: saline + Tween-80 + alcohol",4 of 6
same,survivor count,"dose: 200.0 mg/kg/injection, schedule: Q01DX009 (ip), vehicle: saline + Tween-80 + alcohol",0 of 6
CC1=CC(=O)[C@@H](O)[C@]2(C)[C@H]3[C@@]4(O)OC[C@]35[C@H]([C@@H](C)[C@H]4O)[C@@H](OC(=O)CC(C)C)C(=O)O[C@@H]5C[C@@H]12,T/C,"dose: 1.0 mg/kg/injection, schedule: Q01DX005 (ip), vehicle: saline + alcohol",126 % of control
same,T/C,"dose: 2.0 mg/kg/injection, schedule: Q01DX005 (ip), vehicle: saline + alcohol",130 [5 of 6 alive] and 140 % of control [5 of 6 alive]
same,survivor count,"dose: 4.0 mg/kg/injection, schedule: Q01DX005 (ip), vehicle: saline + alcohol",0 of 6
same,survivor count,"dose: 8.0 mg/kg/injection, schedule: Q01DX005 (ip), vehicle: saline + alcohol",0 of 6
CCCCCCCCCCC(OC(C)=O)C1CCC(C2CCC(C(O)CCCCCCCCCCCCC3C=C(C)OC3=O)O2)O1 (centres undefined),T/C,"dose: 0.5 mg/kg/injection, schedule: Q01DX005 (ip), vehicle: distilled water + Tween-80",135 % of control
same,T/C,"dose: 1.0 mg/kg/injection, schedule: Q01DX005 (ip), vehicle: distilled water + Tween-80",138 % of control
same,T/C,"dose: 1.0 mg/kg/injection, schedule: Q01DX005 (ip), vehicle: water",133 % of control
same,survivor count,"dose: 2.0 mg/kg/injection, schedule: Q01DX005 (ip), vehicle: distilled water + Tween-80",4 of 5
same,T/C,"dose: 2.0 mg/kg/injection, schedule: Q01DX005 (ip), vehicle: water",135 % of control
same,survivor count,"dose: 4.0 mg/kg/injection, schedule: Q01DX005 (ip), vehicle: distilled water + Tween-80",0 of 5
Cc1cc(OP2(=O)Nc3ccccc3-c3ccccc3N2)ccc1Cl,survivor count,"dose: 200.0 mg/kg/injection, schedule: Q01DX005 (ip), vehicle: saline with Tween-80",6 of 6
N#Cc1ccc(NC(=O)Nc2ccc(Cc3ccc(NC(=O)Nc4ccc(C#N)cc4)cc3)cc2)cc1,survivor count,"dose: 60.0 mg/kg/injection, schedule: Q01DX005 (ip), vehicle: Klucel (hydroxypropylcellulose) (HPC)",6 of 6
same,survivor count,"dose: 240.0 mg/kg/injection, schedule: Q01DX005 (ip), vehicle: Klucel (hydroxypropylcellulose) (HPC)",6 of 6
NCCCCCCN1CCN(c2cccc(Cl)c2)CC1,T/C,"dose: 200.0 mg/kg/injection, schedule: Q01DX009 (ip), vehicle: saline",138 % of control [5 of 6 alive]
COC(=O)C12c3ccccc3C3C(c4ccccc41)C32 (centres undefined),survivor count,"dose: 400.0 mg/kg/injection, schedule: Q04DX003 (ip), vehicle: saline",5 of 6
ClC1(c2ccccc2)c2ccc(Br)cc2-c2cc(Br)ccc21,T/C,"dose: 100.0 mg/kg/injection, schedule: Q01DX009 (ip), vehicle: Klucel (hydroxypropylcellulose) (HPC)",133 % of control
same,T/C,"dose: 100.0 mg/kg/injection, schedule: Q01DX009 (ip), vehicle: saline with Tween-80",136 % of control
same,T/C,"dose: 150.0 mg/kg/injection, schedule: Q01DX009 (ip), vehicle: Klucel (hydroxypropylcellulose) (HPC)",125 % of control
NC(=O)NN=C(C1CC1)C1CC1,survivor count,"dose: 100.0 mg/kg/injection, schedule: Q01DX005 (ip), vehicle: Klucel (hydroxypropylcellulose) (HPC)",3 of 5
same,survivor count,"dose: 200.0 mg/kg/injection, schedule: Q01DX005 (ip), vehicle: Klucel (hydroxypropylcellulose) (HPC)",0 of 5
ClCCN(CCCl)c1ccc(/C=N/Nc2ccnc3ccccc23)cc1,survivor count,"dose: 1.56 mg/kg/injection, schedule: Q01DX009 (ip), vehicle: DMSO",5 of 5
same,survivor count,"dose: 3.12 mg/kg/injection, schedule: Q01DX009 (ip), vehicle: DMSO",5 of 6
same,survivor count,"dose: 6.25 mg/kg/injection, schedule: Q01DX009 (ip), vehicle: DMSO",4 of 6 and 5 of 6
same,survivor count,"dose: 12.5 mg/kg/injection, schedule: Q01DX009 (ip), vehicle: DMSO",3 of 6
same,survivor count,"dose: 25.0 mg/kg/injection, schedule: Q01DX009 (ip), vehicle: DMSO",0 of 6
same,survivor count,"dose: 50.0 mg/kg/injection, schedule: Q01DX009 (ip), vehicle: DMSO",0 of 6
same,survivor count,"dose: 100.0 mg/kg/injection, schedule: Q01DX009 (ip), vehicle: DMSO",0 of 6
same,survivor count,"dose: 200.0 mg/kg/injection, schedule: Q01DX009 (ip), vehicle: DMSO",0 of 6
CC(=O)[O][Sn]([CH3])([CH3])[CH3],survivor count,"dose: 1.5 mg/kg/injection, schedule: Q01DX009 (ip), vehicle: saline",6 of 6
same,survivor count,"dose: 3.0 mg/kg/injection, schedule: Q01DX009 (ip), vehicle: saline",0 of 6
COc1cccc2c1C(=O)c1c(O)c3c(c(O)c1C2=O)CC(O)(C(C)=O)CC3OC1CC(NCC2(O)OCC(O)C(OC3OC(CO)C(O)C(O)C3O)C2O)C(O)C(C)O1 (centres undefined),T/C,"dose: 12.5 mg/kg/injection, schedule: Q04DX003 (ip), vehicle: water",128 % of control
